57 molecules from PubChem BioAssay AID2685 (National Center for Advancing Translational Sciences (NCATS), 2010) can be followed below.

This test in a line: qHTS Assay for Lipid Storage Modulators in Drosophila S3 Cells.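 On cell number change: cells counted by Cell Tracker Red CMTPX staining in the red channel.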 The following applies: BODIPY lipid droplet fluorescence, 18-24 h; for cell number change: measured here: cell count max response, cells fed with added oleic acid. Summed up: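 Drosophila S3 cells got compounds at several concentrations plus oleic acid (400 uM solution). Laser-scanning cytometry with 488 nm excitation read lipid droplets at 500-530 nm and cells at 575-640 nm. Percent activity was relative to 20 uM Triacsin C.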
(In general: In qHTS, concentration-response curves come from the screen itself.)

Setting [1] is: measured here: cell number channel AC50, cells fed with added oleic acid.
The mark [2] stands for this setting: measured here: lipid fluorescence (Fed channel) AC50, cells fed with added oleic acid.

This is one part of the list. Further columns of the screen follow, without active or inactive calls. Most of these compounds were active or inconclusive in the main read-out, so they are no random draw. Words in brackets tell the shape of the fitted curve; partial curves, single points and poor fits give uncertain potencies. Where a SMILES comes first, the peptide text is derived from it. [ ]: non-standard residue; d: D form. The star is where a group is joined. ξ: configuration not given here. Boc = CC(C)(C)OC(=O)*; NHBn = c1ccc(CN*)cc1; ξV = CC(C)C(N)C(=O)O

What is called AC50 is the concentration at which the activity in the assay is half-maximal. Read a low AC50 as activity at low concentration. Take `COc1ccc(/C=N/Nc2ccc([N+](=O)[O-])cc2S(=O)(=O)N2CCN(C)CC2)cc1`: the cell number change is -57.4%. Also, the AC50 under setting [1] is 7.31 µM [falling, partial curve]. Also, the AC50 under setting [2] is 0.517 µM [rising, partial curve].

As to `COC(=O)C(Cc1ccc(O)cc1)NC(=O)NC12CC3CC(CC(C3)C1)C2` (stereo not given), the cell number change was -40.2%. Further, the AC50 under setting [1] is 16.4 µM [falling, single point].

As to `COc1ccc(Cl)cc1C(=O)NNC(=O)c1cccc([N+](=O)[O-])c1`, the cell number change came out at 0.955%. For the same molecule, under setting [1], the AC50 was 0.00517 µM [rising, full curve, poor fit]. Further, under setting [2], the AC50 is 6.51 µM [rising, partial curve, poor fit].

Consider `C/C(=N\OCc1nc2ccccc2c(=O)n1/N=C/c1cc([N+](=O)[O-])ccc1O)c1ccccc1`, for which the cell number change turned out to be 7.07%. Under setting [1], the AC50 is 0.146 µM [rising, full curve]. For the same molecule, the concentration at half-maximal activity (AC50) under setting [2] was 0.231 µM [rising, full curve].

As for `O=C(NC1CC1)c1ccc(F)cc1Cl`, the cell number change is -16.1%. Moreover, the AC50 under setting [1] is 0.00461 µM [falling, full curve, poor fit]. Besides, the AC50 under setting [2] was 20.6 µM [falling, partial curve].

Consider `O=C1COc2ccc(C(=O)COC(=O)c3ccc4ccccc4n3)cc2N1`, for which the cell number change is 17.4%. Also, the AC50 under setting [2] was 11.6 µM [rising, single point].

With `COc1ccc(OC)c(NC(=O)c2ccc(-c3cccs3)cc2)c1`, the cell number change is -19%. Under setting [1], the AC50 is 6.51 µM [falling, single point].

Consider `COc1cc(C(=O)NNC(=O)COc2ccc(Cl)cc2)ccc1OCC(=O)N1CCOCC1`, for which the cell number change was -15.8%. Further, the AC50 under setting [2] is 32.6 µM [rising, partial curve, poor fit].

Take `CCn1c(SCC(=O)c2cc(C)n(CC3CCCO3)c2C)nc2ccccc21` (stereo not given): the cell number change is -15%. Also, the AC50 under setting [2] is 0.58 µM [rising, full curve, poor fit].

Turning to `CC(=O)c1ccc(S(=O)(=O)Nc2ccc(C(=O)N(C)CC(=O)Nc3cccc(C)c3C)cc2)cc1`, the cell number change amounted to 1.23%.

On to `COc1cc(S(=O)(=O)N2CCOCC2)cc(C(=O)OCC(=O)NCc2ccco2)c1OC`, for which the cell number change was -2.28%. Under setting [2], the AC50 was 0.0366 µM [rising, single point].

On to `COc1cc(CNC2CCCC2)cc(OC)c1`, for which the cell number change was -12.4%. For the same molecule, under setting [2], the AC50 is 0.651 µM [falling, full curve, poor fit].

On to `COC(=O)c1ccccc1OCC(=O)N1CCN(c2ccc(OC)cc2)CC1`, for which the cell number change is 4.16%. Besides, the AC50 under setting [1] was 6.51 µM [rising, partial curve, poor fit].

On to `C#CCOCCOCCOCCNc1nc(N2CCN(C(=O)CCCCCCCCCCNC(=O)Cn3cc(CCCCCN)nn3)CC2)nc(N2CCN(C(=O)CCCCCCCCCCNC(=O)[C@H](CO)n3cc(CCCCCN)nn3)CC2)n1`, for which the cell number change was -48.5%. For the same molecule, the AC50 under setting [1] is 23.1 µM [falling, partial curve]. In addition, the AC50 under setting [2] was 0.164 µM [rising, full curve, poor fit].

Turning to `COC(=O)c1ccccc1NC(=O)Nc1cccs1`, the cell number change worked out at 24.9%. Moreover, the AC50 under setting [2] is 29.1 µM [rising, single point].

For `CN1C(=O)C(C)(C)c2cc(S(=O)(=O)NCc3ccc(Cl)cc3)ccc21`, the cell number change was -5.48%. Besides, the AC50 under setting [2] is 23.1 µM [falling, single point].

Take `CCCC(C(=O)NC1CCCC1)N(C(=O)c1snc(C(N)=O)c1N)c1ccc(OCC)cc1` (stereo not given): the cell number change is -7.39%. Further, the AC50 under setting [2] is 0.58 µM [rising, single point].

As for `CC(=O)Oc1cc2c(C(=O)NCCCN3CCOCC3)c(C)oc2c2ccccc12`, the cell number change amounted to 6.02%. Further, the AC50 under setting [2] was 0.116 µM [falling, full curve, poor fit].

In the case of `CCCC(=O)N1CCCC(C(=O)c2ccc(OC)c(OC)c2)C1` (stereo not given), the cell number change stood at 18.7%.

As for `Cc1cccc(OCc2nnc(SCc3nc4cc(C(F)(F)F)ccc4c(=O)[nH]3)o2)c1`, the cell number change is -55.3%. The AC50 under setting [1] is 18.4 µM [falling, single point]. Besides, the AC50 under setting [2] was 32.6 µM [falling, single point].

Regarding `CC(=O)NNC(=O)c1nc(-c2ccccc2)c(C)o1`, the cell number change is 35.4%. Besides, the AC50 under setting [1] was 0.116 µM [rising, full curve, poor fit]. Under setting [2], the AC50 is 1.16 µM [rising, partial curve, poor fit].

As to `CSc1sc(-c2ccnc(SCCS(C)(=O)=O)n2)c(-c2ccccc2)c1C#N`, the cell number change was 5.68%.

Take `CCOc1ccc(Oc2ccccc2NC(=O)CN2C(=O)NC3(CCCC3)C2=O)cc1`: the cell number change is -27.3%.

As for `Cc1nnc(SCC(=O)Nc2ccccc2)n(N)c1=O`, the cell number change was 19.4%.

With `CC(C)(C)NC(=O)CSc1nc2ccccc2n1-c1ccccc1`, the cell number change was 46.2%. The concentration at half-maximal activity (AC50) under setting [1] is 2.06 µM [rising, full curve].

As to `Cc1ccc(CNC(=O)CCNC(=O)N2CCn3c2nc2ccccc23)cc1`, the cell number change stood at 4.84%. The AC50 under setting [2] is 0.00411 µM [rising, full curve, poor fit].

For the molecule `CC(C)C(NC(=O)CNC(=O)OC(C)(C)C)C(=O)NCc1ccccc1` (stereo not drawn) (Boc-Gly-[ξV]-NHBn), the cell number change was determined as 3.1%.

For `COCCNC(=O)CSCc1c(F)cccc1Cl`, the cell number change is 8.02%. Also, the AC50 under setting [2] is 4.61 µM [rising, partial curve, poor fit].

As for `Cc1cccc(-c2sc(Nc3ccccc3)n[n+]2-c2ccccc2)c1`, the cell number change turned out to be 3.96%. The AC50 under setting [1] was 6.51 µM [falling, single point]. Moreover, the AC50 under setting [2] was 6.51 µM [falling, single point].

Turning to `O=C(Nc1ccccc1C(=O)Nc1nnc(C(F)(F)F)s1)c1ccccc1Cl`, the cell number change is -57.9%. In addition, the AC50 under setting [1] was 20.6 µM [falling, single point]. In addition, the AC50 under setting [2] was 29.1 µM [falling, single point].

Turning to `CS(=O)(=O)c1ccc(C(=O)N2CCN(Cc3ccccc3)CC2)cc1`, the cell number change amounted to 12.5%. Further, the concentration at half-maximal activity (AC50) under setting [2] was 6.51 µM [falling, single point].

Turning to `CCCCC1C(=O)N(c2ccccc2)N(c2ccccc2)C1=O`, the cell number change is -12.7%. For the same molecule, the AC50 under setting [2] is 0.103 µM [falling, full curve, poor fit].

Turning to `Cc1cccc(C(=O)OCC(=O)NCC2COc3ccccc3O2)c1` (stereo not given), the cell number change was found to be 6.71%. Further, the AC50 under setting [2] was 0.58 µM [rising, single point].

Turning to `COc1ccccc1C(NC(=O)CC(C)C)c1c(O)ccc2ccccc12` (stereo not given), the cell number change is -40.4%. Moreover, the half-maximal activity concentration (AC50) under setting [1] is 14.6 µM [falling, single point]. Also, under setting [2], the AC50 was 29.1 µM [falling, single point].

For the molecule `CCCCn1c(-c2ccc([N+](=O)[O-])cc2)n[nH]c1=S`, the cell number change is -13.4%. Under setting [2], the AC50 was 11.6 µM [rising, partial curve].

For `Cc1ccc(NC(=O)C(c2ccccc2)N2CCN(C(=O)c3ccco3)CC2)cc1` (stereo not given), the cell number change was -13.2%. Further, the AC50 under setting [2] is 29.1 µM [falling, single point].

On to `Cc1ccc(S(=O)(=O)N2CCC(C(=O)N[C@@H](C)C(=O)Nc3ccc4c(c3)OCO4)CC2)cc1`, for which the cell number change was -25.4%.

Regarding `NS(=O)(=O)c1ccc2c(c1)C(=NO)c1cc(S(N)(=O)=O)ccc1-2`, the cell number change is -1.76%. Also, the half-maximal activity concentration (AC50) under setting [2] is 16.4 µM [rising, partial curve].

As for `CC(C)OC(=O)CSc1nc(N)c(C#N)c(-c2ccco2)c1C#N`, the cell number change is -47.1%. For the same molecule, the AC50 under setting [1] is 13 µM [falling, partial curve]. The AC50 under setting [2] was 13 µM [falling, partial curve].

Take `Cc1ccc(-n2nc3c(N4CCC(C(=O)NCCc5ccccc5C)CC4)nnc(C)c3c2C)cc1`: the cell number change came out at 15.1%. In addition, the AC50 under setting [2] was 2.91 µM [rising, single point].

Take `COc1ccc(CCOC(=O)c2cccc(NC(C)=O)c2)cc1`: the cell number change was 30.1%. Also, under setting [1], the half-maximal activity concentration (AC50) was 14.6 µM [rising, single point]. Under setting [2], the AC50 is 0.731 µM [falling, single point].

Take `O=C(COC(=O)Cn1cnc2ccccc21)NCCCc1ccccc1`: the cell number change came to 106%. Besides, the AC50 under setting [2] is 16.4 µM [rising, partial curve].

Take `C=CCn1c(COc2ccc3c(c2)CCCC3)nnc1SCC(=O)Nc1cccc(SC)c1`: the cell number change was -13%. In addition, under setting [2], the AC50 was 29.1 µM [falling, single point].

With `Cc1cc(SCC(=O)N/N=C/c2ccc(O)cc2O)nc2ccccc12`, the cell number change was -45.3%. For the same molecule, the AC50 under setting [1] is 18.4 µM [falling, single point]. Moreover, the AC50 under setting [2] is 29.1 µM [falling, single point].

Take `Cn1c(CO)cnc1SCC(=O)c1ccc(Cl)cc1`: the cell number change is -21.9%.

For `Cc1ccc(C)c(NC(=S)N(C)CCc2ccccn2)c1`, the cell number change was -40.8%. Also, the concentration at half-maximal activity (AC50) under setting [1] is 0.116 µM [falling, full curve, poor fit]. Further, the concentration at half-maximal activity (AC50) under setting [2] is 18.4 µM [falling, single point].

Turning to `CC(=O)CCC(=O)NC1CCCc2c1cnn2-c1ccc(C(C)(C)C)cc1` (stereo not given), the AC50 under setting [2] was 11.6 µM [falling, partial curve, poor fit].

`CCCN1CCN(CCCNC(=O)CN2C(=O)c3cccnc3Oc3ccc(C)cc32)CC1`: the cell number change is 23.7%.

On to `O=C(c1ccco1)n1nc(-c2ccc(Cl)cc2)nc1NCc1ccco1`, for which the cell number change came out at 0.0174%. The concentration at half-maximal activity (AC50) under setting [2] was 29.1 µM [rising, partial curve].

Turning to `O=c1c2[nH]cnc2n(-c2cccc(F)c2)c(=O)n1Cc1ccccc1`, the cell number change is -5.56%.

`Cc1cc2nccc(-c3ccccn3)n2n1`: the AC50 runs as follows: under setting [1], 0.092 µM [rising, full curve, poor fit]; under setting [2], 0.146 µM [rising, full curve, poor fit].

With `Cc1scc(C(=O)Nn2cnnc2)c1-c1ccccc1`, the cell number change was 2.84%. Further, the AC50 under setting [2] was 0.731 µM [falling, full curve, poor fit].

With `COc1ccc(CC(O)COS(N)(=O)=O)cc1` (stereo not given), the cell number change came out at 19.7%. Further, the half-maximal activity concentration (AC50) under setting [2] is 7.31 µM [rising, partial curve].

For the molecule `Cc1cc(OCC(=O)Nc2ccc(S(=O)(=O)N3CCN(C)CC3)cc2)ccc1Br`, the cell number change came out at 11.6%.

On to `CCOC(=O)c1c(C2CC2)csc1NC(C)=O`, for which the AC50 under setting [1] is 0.291 µM [rising, partial curve, poor fit].

Turning to `COc1ccccc1C(=O)N1CCNC(=O)C1CC(=O)Nc1ccc(Cl)cc1` (stereo not given), the AC50 under setting [2] is 0.184 µM [falling, full curve, poor fit].

`Cc1ccccc1-c1nc(CS(=O)(=O)CC(=O)NCc2ccccc2)c(C)o1`: the cell number change is 66.9%. Also, the AC50 under setting [1] is 4.61 µM [rising, partial curve]. The AC50 under setting [2] was 1.84 µM [rising, full curve].
